Results published in patent publication US20090312249A1.
These are yes or no findings as the source states them, for the method shown. Binding seen in cells or lysates may run through a third protein. Some entries that bind do so weakly or less than the wild type. Tags and fused reporters may be left off the sequences shown.

The chains behind the UniProt entries cited, without tags or fusion partners. Residues count along the entry.
UniProt O00206, residues 24-631: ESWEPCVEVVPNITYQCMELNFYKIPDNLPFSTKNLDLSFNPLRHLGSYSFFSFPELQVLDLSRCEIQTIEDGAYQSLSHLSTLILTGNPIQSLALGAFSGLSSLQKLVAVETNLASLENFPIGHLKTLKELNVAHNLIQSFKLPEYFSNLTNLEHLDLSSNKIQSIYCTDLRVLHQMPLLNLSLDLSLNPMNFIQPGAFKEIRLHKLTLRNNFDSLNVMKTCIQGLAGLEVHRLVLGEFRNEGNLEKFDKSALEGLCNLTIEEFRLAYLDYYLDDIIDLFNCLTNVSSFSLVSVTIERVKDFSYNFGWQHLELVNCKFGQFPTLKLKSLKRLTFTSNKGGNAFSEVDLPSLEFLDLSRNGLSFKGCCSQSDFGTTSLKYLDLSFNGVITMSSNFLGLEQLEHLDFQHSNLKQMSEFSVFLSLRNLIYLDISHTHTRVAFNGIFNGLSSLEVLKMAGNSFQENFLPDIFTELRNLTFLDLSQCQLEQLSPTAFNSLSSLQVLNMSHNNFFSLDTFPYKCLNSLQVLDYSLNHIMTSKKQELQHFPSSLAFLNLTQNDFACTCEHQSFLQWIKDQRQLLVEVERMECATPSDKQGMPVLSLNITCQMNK

Assays:
[1] = biological target: T1, Protein A-tagged MD-2 (UniProt Q9Y6Y9); assay: co-expression in insect cells, IgG Sepharose affinity co-purification, SDS-PAGE (legend of FIG. 4A)
T1 sequence (looked up): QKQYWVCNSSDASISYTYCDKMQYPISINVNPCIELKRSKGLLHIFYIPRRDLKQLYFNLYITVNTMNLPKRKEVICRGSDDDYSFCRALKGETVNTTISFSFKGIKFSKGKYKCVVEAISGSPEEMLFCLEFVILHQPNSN

[2] = biological target: T1, Protein A-tagged MD-2; assay: co-expression in insect cells, IgG Sepharose affinity co-purification, SDS-PAGE

binding [1]: binds | binding [2]: binds
Substance: hTLR4 ectodomain (from UniProt O00206 24-631) (receptor)
